Source: PubChem BioAssay AID1159578 (Peter MacCallum Cancer Centre, 2015)
Purpose: 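Genome-wide hunt for genes controlling movement of lymphatic endothelial cells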 (primary screen). Cell system: human lymphatic endothelial cells. Knock-down reagent: siRNA pool against human genes, 40 nM. Timing: 48 h after transfection. Read-out: 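Cells stained with dye and imaged after a scratch; covered wound area and nuclei counted, duplicates averaged, migration set against mock wells and turned into a robust z-score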. Direction: migration robust z-score: higher = faster migration into the scratch; nuclei per well: higher = more cells in the well. Call rule: 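Migration changed when robust z exceeds 2 or falls below -2 and mean nuclei number is at least 3300; otherwise not called changed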. Calls: active = migration changed; inactive = no migration change, or too few cells.
This is a random part of about 18,000 reagents. Of all reagents, about 1,030 (5.7%) are marked active. 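Inactive calls also include pools with fewer than 3300 nuclei, whose migration was not assessed.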 Raw values are not corrected between plates. A number with no mark means an inactive call. Not all columns of the deposit are shown.

{"gene symbol": "NLE1", "migration robust z-score": 0, "nuclei per well, duplicate mean": 5354}
{"gene symbol": "KDM5C", "migration robust z-score": 0.62, "nuclei per well, duplicate mean": 6584}
{"gene symbol": "ADCY4", "migration robust z-score": 0.13, "nuclei per well, duplicate mean": 5647}
{"gene symbol": "LRWD1", "migration robust z-score": -0.26, "nuclei per well, duplicate mean": 5012}
{"gene symbol": "PRDM15", "migration robust z-score": 0.71, "nuclei per well, duplicate mean": 5113}
{"gene symbol": "VEGFB", "migration robust z-score": -0.65, "nuclei per well, duplicate mean": 5406}
{"gene symbol": "PDZD9", "migration robust z-score": "2.33 (active)", "nuclei per well, duplicate mean": 5353}
{"gene symbol": "FCGR2B", "migration robust z-score": 1.66, "nuclei per well, duplicate mean": 4825}
{"gene symbol": "PPP2CB", "migration robust z-score": 0.03, "nuclei per well, duplicate mean": 4945}
{"gene symbol": "SPTLC2", "migration robust z-score": -1.27, "nuclei per well, duplicate mean": 4426}
{"gene symbol": "SYT4", "migration robust z-score": 1.32, "nuclei per well, duplicate mean": 5170}
{"gene symbol": "ADAMTS2", "migration robust z-score": 0.32, "nuclei per well, duplicate mean": 5104}
{"gene symbol": "ZHX1", "migration robust z-score": 1.04, "nuclei per well, duplicate mean": 5539}
{"gene symbol": "U2SURP", "migration robust z-score": 0.15, "nuclei per well, duplicate mean": 7538}
{"gene symbol": "MAST4", "migration robust z-score": 0.39, "nuclei per well, duplicate mean": 4688}
{"gene symbol": "PAF1", "migration robust z-score": 1.04, "nuclei per well, duplicate mean": 4506}
{"gene symbol": "LGALS9C", "migration robust z-score": 0.38, "nuclei per well, duplicate mean": 5972}
{"gene symbol": "CEP57L1", "migration robust z-score": -0.26, "nuclei per well, duplicate mean": 6226}
{"gene symbol": "SNX6", "migration robust z-score": 0.3, "nuclei per well, duplicate mean": 5714}
{"gene symbol": "MMP7", "migration robust z-score": 0, "nuclei per well, duplicate mean": 5566}
{"gene symbol": "TEKT3", "migration robust z-score": -0.26, "nuclei per well, duplicate mean": 5782}
